# About 2,100 (0.66%) of roughly 320,000 compounds were called active. The shares of active, inactive and inconclusive entries below differ from those in the screen. The call rests on the fitted dose curve; in most records, active means well fitted inhibition curve with a large enough effect in the signal ratio, with a control signal flat (not every such curve was filed as active); inconclusive means small, poorly fitted or top-dose-only effect, or effect the other way, or a change in a side signal; inactive means flat fitted curve, though single readings scatter; the % refers to the signal ratio. Where the call is inconclusive, the potency comes from a doubtful curve fit.
# Test: qHTS Assay for Lipid Storage Modulators in Drosophila S3 Cells
# Conditions: BODIPY lipid droplet fluorescence, 18-24 h, cells fed with added oleic acid; lipid storage change, negative = inhibition: at 46.1 µM (top of the series) unless noted
# Summary of the method: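 Laser-scanning cytometry quantifies lipid droplet accumulation (500–530 nm total intensity; droplet/cell object ratio) in oleic acid-fed (400 uM added) Drosophila S3 cells treated with a concentration series. 20 uM Triacsin C defined 100% inhibition.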
# On the % scale 0 is the no-effect control and ±100 the full control effect; potency means the concentration at half of the fitted maximal effect.
Structure (SMILES),Potency,"lipid storage change, negative = inhibition"
O=C(N/N=C/c1cccc(Oc2ccccc2)c1)c1ccc(O)cc1O,"inconclusive: 29.1 µM [falling, single point]",–
CCCn1c(=O)c(C(=O)Nc2c(C)n(C)n(-c3ccccc3)c2=O)c(O)c2ccccc21,"inconclusive: 0.58 µM [activator, single point]",–
Cc1ccc(CNC(=O)C(=O)NCC2OCCN2S(=O)(=O)c2ccc3c(c2)OCCO3)cc1 (centres undefined),"inconclusive: 9.2 µM [rising, partial curve]",–
COc1ccc2oc(=O)c(/C(C)=N/Nc3nc(-c4cc(C)ccc4C)cs3)cc2c1,–,inconclusive: -14.1%
O=C(C1CC1)N1CCc2cc(Br)cc(S(=O)(=O)NCCCN3CCCCC3)c21,–,inconclusive: 96.5%
C=CCN(C(=O)CN1CCCCC1)c1nc(-c2ccccc2)cs1,"inconclusive: 29.1 µM [activator, single point]",–
O=C(Nc1nnc(CCN2CCOCC2)s1)C1CCCCC1,–,inconclusive: -23.8%
Cc1cccc(NC(=O)CNC(=O)C(NC(=O)Cc2ccccc2)C(C)C)c1C (centres undefined),–,inconclusive: 11.7%
CC(C)(/C=N/O)/[N+]([O-])=C/c1ccccc1,–,inconclusive: -53.7%
O=C(CN(C(=O)c1csnn1)c1ccccc1Cl)NCCc1ccccc1,"inconclusive: 14.6 µM [falling, partial curve]",–
CCn1ccc(C(=O)Nc2ccc(N(C)C(C)=O)cc2)n1,"inconclusive: 0.103 µM [activator, full curve]",–
CC(C)(C)C1CCC(=NNC(=O)C(=O)NCc2ccco2)CC1 (centres undefined),–,inconclusive: -46.5% [cytotoxic] [at 0.369 µM]
O=C(O)CC1S/C(=N\N=C/c2ccccc2O)N(c2ccc(O)cc2)C1=O (centres undefined),–,inconclusive: 10.3%
O=C(NCCCc1ccccc1)C(=O)NCC1OCCN1S(=O)(=O)c1ccc(F)cc1 (centres undefined),"inconclusive: 13 µM [activator, single point]",–
Cc1ccoc1C(=O)N1CCN(C(=O)c2occc2C)CC1,–,inconclusive: 243%
O=C(/C=C\Nc1ccc(S(=O)(=O)Nc2ncccn2)cc1)c1ccccc1,–,inconclusive: -29.5%
Nc1nc(N)nc(-c2cc(C(F)(F)F)ccc2Cl)n1,"inconclusive: 3.66 µM [activator, single point]",–
CCc1ccc(OCC(=O)N/N=C(\C)c2ccc3c(c2)OCCO3)cc1,"inconclusive: 1.84 µM [activator, full curve, poor fit]",–
COc1ccc(N(CC(=O)NCc2ccc(C)cc2)S(=O)(=O)c2c(C)noc2C)cc1,"inconclusive: 25.9 µM [activator, partial curve]",–
c1cncc(CNc2ncnc3ccc(-c4ccco4)cc23)c1,–,inconclusive: 30.9%
NC(=O)c1ccc(NCCc2ccccc2)c([N+](=O)[O-])c1,–,inconclusive: -10.9% [cytotoxic]
COC(=O)c1ccc(C(=O)OC)c(NC(=S)N2CCN(c3cc(Cl)ccc3C)CC2)c1,–,inconclusive: 24%

Structure (SMILES),Potency,"lipid storage change, negative = inhibition"
O=C(c1ccc2ccccc2c1)C1CCCN(C(=O)c2cccnc2)C1 (centres undefined),"inconclusive: 4.61 µM [activator, partial curve, poor fit]",–
CCCCn1c(N)c(N(Cc2ccccc2OC)C(=O)c2cc(=O)[nH]c3ccccc23)c(=O)[nH]c1=O,–,inconclusive
COc1ccc(-c2cc(C(F)(F)F)n3nc(C(=O)Nc4c(C)n(C)n(-c5ccccc5)c4=O)c(Cl)c3n2)cc1,–,inconclusive: 19.8%
CCCn1c(C(C)Nc2nc(-c3cc(Cl)c(N)c(Cl)c3)cs2)nc2cc(Cl)c(N3CCCCC3)cc21 (centres undefined),"inconclusive: 20.6 µM [activator, partial curve]",–
COc1ccc(OC)c(CCNC(=O)Cc2ccc(NC3=NC4CS(=O)(=O)CC4S3)cc2)c1 (centres undefined),"inconclusive: 5.8 µM [activator, full curve, poor fit]",–
CC(C)=CC(=O)OCC(=O)Nc1ccc(SC(F)F)cc1,–,inconclusive: -16.4%
Cc1ccc(S(=O)(=O)N(CCCO)CC(O)CON=C2c3ccccc3-c3ccccc32)cc1 (centres undefined),"inconclusive: 29.1 µM [falling, single point]",–
COc1ccc(C(=O)C2CCCN(Cc3ccc4c(c3)OCCO4)C2)cc1F (centres undefined),–,inconclusive: 10.7%
COCCn1c(=N)c(S(=O)(=O)c2ccc(Br)cc2)cc2c(=O)n3ccccc3nc21,–,inconclusive: 13.2%
COc1cccc(N(C(=O)c2csnn2)C(C(=O)NC2CCCC2)c2ccccc2)c1 (centres undefined),–,inconclusive: -43.2%
O=C(Nc1ccc(F)c(F)c1)C1CCN(S(=O)(=O)c2cccs2)CC1,"inconclusive: 4.61 µM [falling, single point]",–
COc1ccc(C(C(=O)NC2CCCC2)N(C(=O)c2ccco2)c2ccccc2C(C)=O)cc1OC (centres undefined),–,inconclusive: -43.2%
CCN(CC)C(=O)c1[nH]cnc1C(=O)NCCCCCNC(=O)OC(C)(C)C,–,inconclusive: 2.48%
NS(=O)(=O)c1ccc(NC(=O)/C(=C/c2ccncc2)NC(=O)c2ccccc2)cc1,–,inconclusive: 120%
O=C(Nc1cc(-c2ccccc2)cs1)c1ccco1,–,inconclusive: 5.15%
CC(=O)c1cccc(CN2CCCCC2C(=O)Nc2ccc(Oc3ccccc3)nc2)c1 (centres undefined),"inconclusive: 3.26 µM [falling, single point]",–
Cc1cc(N2CCN(C)CC2)nc2ccc(NC(=O)CCC(=O)NCCCOC(C)C)cc12,–,inconclusive: 93.9%
COc1ccccc1NC(=O)N1CCCC1C(=O)NCCc1ccccc1 (centres undefined),–,inconclusive: -27.2%
CCOC(=O)C1CCCN(C2=NC(=O)/C(=C/c3ccc(OC)cc3)S2)C1 (centres undefined),–,inconclusive: -20.3%
Cc1cccc(C(=O)N(c2ccccn2)C(C)c2ccco2)c1 (centres undefined),–,inconclusive: 37.8%
NC(=O)c1ccc(NC(=O)CCC(=O)c2cccs2)cc1,"inconclusive: 0.461 µM [falling, partial curve, poor fit]",–
Cc1oc(-c2cccc(Cl)c2)nc1CS(=O)(=O)CC(=O)NCCCN1CCOCC1,"inconclusive: 0.82 µM [activator, full curve, poor fit]",–

# Filtered by structure, the compounds so far with a CF3 group
Structure (SMILES),Potency,"lipid storage change, negative = inhibition"
Nc1nc(N)nc(-c2cc(C(F)(F)F)ccc2Cl)n1,"inconclusive: 3.66 µM [activator, single point]",–
COc1ccc(-c2cc(C(F)(F)F)n3nc(C(=O)Nc4c(C)n(C)n(-c5ccccc5)c4=O)c(Cl)c3n2)cc1,–,inconclusive: 19.8%
